Values from PubChem BioAssay AID1259264 (Sanger Institute, 2017).
Assay: 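Kinases whose loss cuts CL40 colorectal cancer cell survival, alone or with drugs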 (primary screen). Cells: CL40 human colorectal cancer cells. Reagents: siRNA pool against human genes. Challenge: DMSO, or an anchor drug: BYL719 at 1 µM, cetuximab at 5 µg/ml, or trametinib at 10 nM. Measurement: 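Viability as a fraction of non-targeting pool control (replicates averaged), control-based robust z-score, plus averaged synergy for each drug: BYL719 1 µM, cetuximab 5 µg/ml, trametinib 10 nM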. Scale: robust z-score, siRNA alone and viability, siRNA alone: higher = more viable cells; synergy score with BYL719: higher = stronger combined killing with BYL719; synergy score with cetuximab: higher = stronger combined killing with cetuximab; synergy score with trametinib: higher = stronger combined killing with trametinib. Rule for the call: 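Essential call: siRNA with no drug reaches a robust z under -3 (low cell count); drug synergy scores do not affect it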. Meaning of the calls: active = essential (lowers viability alone); inactive = not essential.
The deposit covers 794 reagents; this is a part drawn at random. 15 of all reagents (1.9%) count as active. 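Calls rest on knock-down alone at z-score below -3; synergy scores with the three drugs do not decide them.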 Entries without a mark were called inactive. No viability above 1 is reported: the scale is capped. Not stated in the record: the amount of reagent, the time to read-out.

The opening 3 records, to show the layout:
target	robust z-score, siRNA alone	viability, siRNA alone (fraction of control)	synergy score with BYL719	synergy score with cetuximab	synergy score with trametinib
MAPK11 (mitogen-activated protein kinase 11)	0.539	1	-0.124	-0.0174	0.106
POMK (protein O-mannose kinase)	-0.53	0.923	-0.147	-0.0867	0.0166
RPS6KA2 (ribosomal protein S6 kinase A2)	-0.958	0.893	-0.00406	0.0172	0.137

The list itself, from the first entry:
target	robust z-score, siRNA alone	viability, siRNA alone (fraction of control)	synergy score with BYL719	synergy score with cetuximab	synergy score with trametinib
MAPK11 (mitogen-activated protein kinase 11)	0.539	1	-0.124	-0.0174	0.106
POMK (protein O-mannose kinase)	-0.53	0.923	-0.147	-0.0867	0.0166
RPS6KA2 (ribosomal protein S6 kinase A2)	-0.958	0.893	-0.00406	0.0172	0.137
SIK1 (salt inducible kinase 1)	-0.0558	0.957	-0.127	0.00829	0.0724
STK26 (serine/threonine kinase 26)	-0.176	0.949	-0.0203	-0.0571	-0.00198
TTBK1 (tau tubulin kinase 1)	-0.806	0.904	0.0116	-0.112	0.0733
GALK2 (galactokinase 2)	-0.596	0.919	-0.152	-0.0752	0.0399
CAMK2G (calcium/calmodulin dependent protein kinase II gamma)	0.539	1	-0.0257	-0.0174	0.0594
CALM2 (calmodulin 2)	0.539	1	0.00302	-0.0174	0.132
DGUOK (deoxyguanosine kinase)	0.539	1	0.0278	-0.0174	0.104
MYLK2 (myosin light chain kinase 2)	0.309	0.983	0.00469	0.0509	0.12
SMC1A (structural maintenance of chromosomes 1A)	0.539	1	-0.0518	-0.0174	0.0896
PGK2 (phosphoglycerate kinase 2)	0.539	1	-0.156	-0.0174	0.0511
UCKL1 (uridine-cytidine kinase 1 like 1)	-0.363	0.935	-0.101	-0.0478	0.0865
STK17A (serine/threonine kinase 17a)	0.481	0.996	0.0375	-0.00524	0.18
DLG1 (discs large MAGUK scaffold protein 1)	0.118	0.97	-0.133	0.043	0.0137
CDK12 (cyclin dependent kinase 12)	0.202	0.976	-0.117	-0.00253	0.0372
PRKD1 (protein kinase D1)	0.539	1	-0.0512	-0.0174	0.037
CAMK2D (calcium/calmodulin dependent protein kinase II delta)	0.539	1	-0.144	-0.0174	-0.0265
CDK2 (cyclin dependent kinase 2)	0.539	1	-0.0674	-0.0174	0.0643
TNIK (TRAF2 and NCK interacting kinase)	0.499	0.997	-0.0187	0.0234	0.0527
MAP3K9 (mitogen-activated protein kinase kinase kinase 9)	-2.23	0.802	-0.016	-0.203	-0.0313
MAPKAPK2 (MAPK activated protein kinase 2)	0.286	0.982	-0.00456	-0.0352	0.031
CKS2 (CDC28 protein kinase regulatory subunit 2)	0.539	1	-0.0122	-0.0174	0.0483
GRK5 (G protein-coupled receptor kinase 5)	0.492	0.997	-0.0893	0.00911	0.117
ITK (IL2 inducible T cell kinase)	0.0893	0.968	-0.183	-0.0491	0.00835
CSNK2A1 (casein kinase 2 alpha 1)	0.539	1	-0.156	-0.0174	0.0105
PIK3CA	-0.366	0.935	-0.00662	0.00707	0.149
PKN3 (protein kinase N3)	0.539	1	-0.0741	0.015	0.0239
LIMK2 (LIM domain kinase 2)	0.539	1	-0.135	0.0148	0.00471
COMMD3 (COMM domain containing 3)	0.524	0.999	-0.00403	0.0077	0.0635
LCK (LCK proto-oncogene, Src family tyrosine kinase)	0.539	1	0.126	0.0646	0.0961
TRIO (trio Rho guanine nucleotide exchange factor)	0.336	0.985	-0.115	0.00299	0.0639
MED24 (mediator complex subunit 24)	0.539	1	-0.0962	-0.0174	0.0632
STK17B (serine/threonine kinase 17b)	-0.833	0.902	-0.132	-0.11	0.0792
STK3 (serine/threonine kinase 3)	0.539	1	-0.0921	-0.0174	0.044
PFKFB3 (6-phosphofructo-2-kinase/fructose-2,6-biphosphatase 3)	0.539	1	0.0369	-0.0174	0.128
ASPM (assembly factor for spindle microtubules)	0.539	1	-0.0844	0.0239	0.102
DGKH (diacylglycerol kinase eta)	0.539	1	0.0201	0.0887	0.133
SMAD4 (SMAD family member 4)	0.539	1	-0.0184	0.00317	-0.00434
TRIB2 (tribbles pseudokinase 2)	0.236	0.978	-0.0309	0.0296	0.165
RAD21 (RAD21 cohesin complex component)	0.539	1	0.0181	0.0481	0.0991
TRPM6	0.539	1	-0.156	-0.0174	0.0279
AK4 (adenylate kinase 4)	0.539	1	-0.0238	-0.0174	0.00687
GRK4 (G protein-coupled receptor kinase 4)	0.539	1	-0.156	-0.000776	0.0921
AAK1 (AP2 associated kinase 1)	-0.232	0.945	0.00227	-0.0196	-0.00368
STK39 (serine/threonine kinase 39)	-1.31	0.867	-0.0325	-0.148	0.0919
NTN4 (netrin 4)	0.0669	0.966	0.0267	0.12	0.0804
DNMT3A (DNA methyltransferase 3 alpha)	-0.525	0.924	-0.0899	0.0244	0.0547
SRC (SRC proto-oncogene, non-receptor tyrosine kinase)	0.539	1	0.00405	0.0119	0.0478
ULK4 (unc-51 like kinase 4)	-0.66	0.914	-0.0487	-0.0213	0.0967
GAK (cyclin G associated kinase)	0.539	1	-0.0485	0.0415	0.0157
CDK13 (cyclin dependent kinase 13)	0.539	1	-0.101	-0.0174	-0.0435
CDKN2D (cyclin dependent kinase inhibitor 2D)	0.16	0.973	-0.0112	0.0769	0.168
PIP5K1C (phosphatidylinositol-4-phosphate 5-kinase type 1 gamma)	0.539	1	-0.114	0.103	0.0751
TAF1 (TATA-box binding protein associated factor 1)	0.539	1	-0.156	-0.0174	0.0444
MAP3K5 (mitogen-activated protein kinase kinase kinase 5)	0.539	1	-0.0215	-0.0174	0.123
PBK (PDZ binding kinase)	0.539	1	-0.0299	-0.0174	0.0267
CDKN2C (cyclin dependent kinase inhibitor 2C)	0.338	0.986	-0.107	0.0547	0.152
NTRK2 (neurotrophic receptor tyrosine kinase 2)	0.539	1	0.0028	-0.0174	0.0822
TPD52L3 (TPD52 like 3)	-0.0598	0.957	-0.129	-0.0596	0.137
MAP3K8 (mitogen-activated protein kinase kinase kinase 8)	-1.86	0.828	-0.0279	-0.104	0.0503
VRK1 (VRK serine/threonine kinase 1)	-4.52 (active)	0.638	-0.332	-0.287	-0.171
